Measurements published in paper PMC2700067.
These are yes or no findings as the source states them, for the method shown. Binding seen in cells or lysates may run through a third protein. Some entries that bind do so weakly or less than the wild type.

Amino acid sequences for entries named in this document (tags omitted). A change or cut given only in a name is not applied to a line headed by its entry.
UniProt Q9HC16: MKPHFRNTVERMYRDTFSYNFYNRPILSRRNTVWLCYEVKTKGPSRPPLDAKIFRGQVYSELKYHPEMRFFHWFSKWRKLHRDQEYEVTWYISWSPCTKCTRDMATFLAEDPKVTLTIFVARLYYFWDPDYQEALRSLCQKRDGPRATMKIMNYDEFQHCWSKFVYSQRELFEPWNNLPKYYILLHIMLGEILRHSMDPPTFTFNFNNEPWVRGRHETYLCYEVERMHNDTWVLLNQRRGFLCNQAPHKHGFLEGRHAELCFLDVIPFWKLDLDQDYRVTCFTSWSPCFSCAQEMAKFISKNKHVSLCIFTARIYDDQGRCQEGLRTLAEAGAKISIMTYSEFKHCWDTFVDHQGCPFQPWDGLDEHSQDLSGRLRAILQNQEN

Legend:
Experiment in all cases: split reporter; BiFC: NY (YFP 1-172) and CY (YFP 173-238) fusions co-transfected into HeLa cells with mRFP1; live-cell confocal microscopy at 37°C and 5% CO2, about 14 h after transfection
C97S-CY (human) = C97S-CY (human) (UniProt Q9HC16)
C288S-CY (human) = C288S-CY (human) (UniProt Q9HC16)
H257R-CY (human) = H257R-CY (human) (UniProt Q9HC16)

Substance: C97S-NY (from UniProt Q9HC16 1-384)
- binding (C97S-CY (human)): no binding
- binding (C288S-CY (human)): binds weakly
- binding (H257R-CY (human)): binds weakly
